These are literature values, as cited in publication PMC5087393, “A Toolbox of Genetically Encoded FRET-Based Biosensors for Rapid L-Lysine Analysis” (Sensors (Basel, Switzerland), 2016).

For orientation: Kd means the free concentration of one partner at which half of the binding sites on the other are occupied at equilibrium, for simple one-to-one binding.

The subject of the data set is LAO-binding protein of E. coli. Conditions: read-out: Kd (equilibrium dialysis); without permutation and fluorescent proteins; 10 mM KPi buffer, pH 7.0, 50 mM NaCl. (In general: Equilibrium dialysis compares concentrations on both sides of a semipermeable membrane.)

In the case of `NCCC[C@H](N)C(=O)O` [ornithine], the Kd was 5 µM.
